According to US20240360234A1 (NKARTA, published 2024):
These are yes or no findings as the source states them, for the method shown. Some binding calls cover weakened binding; strength is not graded here. Tags and fused reporters may be left off the sequences shown.

Biological target: T1, CD70-hFc complex (extracellular domain of human CD70 fused with the Fc region of human IgG1) (human) (UniProt P32970)
T1 sequence (looked up): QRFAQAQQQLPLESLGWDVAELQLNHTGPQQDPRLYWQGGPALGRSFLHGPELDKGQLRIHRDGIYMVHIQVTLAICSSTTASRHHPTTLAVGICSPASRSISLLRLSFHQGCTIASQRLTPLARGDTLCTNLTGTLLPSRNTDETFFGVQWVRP
Test: flow cytometry, CD70-hFc on NK72-transduced Jurkat cells (nearly 83% NK72 positive; the cells also carry endogenous CD27)

- binding: binds
B1: NK72 anti-CD70 CAR (scFv, not shown: a dimerising Fc or GST; small tags and cut ends)
scFv: EVQLVQSGAEVKKPGESLKISCKGSGYGFTSYWIGWVRQMPGKGLEWMGIIHPDDSDTKYSPSFQGQVTISADKSISTAYLQWSSLKASDTAMYYCASSYLRGLWGGYFDYWGQGTLVTVSSGGGGSGGGGSGGGGSELQSVLTQPPSASGTPGQRVTISCSGSSSNIGSNYVNWYQQLPGTAPKLLIYGDYQRPSGVPDRFSGSKSGTSASLAISGLRSEDEADYYCATRDDSLSGSVVFGTGTKLTVL
